{"sequences": {"note": "Chains of the proteins cited; added tags and fusions are not shown. Residues count along the entry.", "UniProt P06748, residues 1-290": "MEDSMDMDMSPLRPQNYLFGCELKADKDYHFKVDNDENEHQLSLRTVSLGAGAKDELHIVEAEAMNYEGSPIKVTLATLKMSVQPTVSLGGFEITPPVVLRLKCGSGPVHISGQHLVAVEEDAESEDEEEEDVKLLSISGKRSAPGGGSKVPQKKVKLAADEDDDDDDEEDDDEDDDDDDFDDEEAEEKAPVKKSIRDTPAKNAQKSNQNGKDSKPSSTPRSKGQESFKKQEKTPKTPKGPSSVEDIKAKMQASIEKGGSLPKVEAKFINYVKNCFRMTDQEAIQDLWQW"}, "source": "paper PMC10496494", "molecular_target": "NPM1 (human wildtype nucleophosmin, residues 1 to 290), purified recombinant (human) (UniProt P06748)", "test": "SPR; Biacore T200; DDX24^E271K and NPM1, which of them was immobilised is not told in the text (Supplemental Figure 5C-D); CM5 chip, amine coupling; PBS, 0.05% Tween-20, 1% DMSO, pH 7.4, 25 °C; Langmuir 1:1 model; both purified", "note": "Results are given in words; binding and its absence hold for the method and conditions named. Some results given as binding are weak or reduced against the parent protein; the word gives no strength.", "data": [{"binder": "DDX24^E271K (p.Glu271Lys), purified recombinant (domain or fragment, UniProt Q9GZR7 28-859) KWKEVKIDPNMFADGQMDDLVCFEELTDYQLVSPAKNPSSLFSKEAPKRKAQAVSEEEEEEEGKSSSPKKKIKLKKSKNVATEGTSTQKEFEVKDPELEAQGDDMVCDDPEAGEMTSENLVQTAPKKKKNKGKKGLEPSQSTAAKVPKKAKTWIPEVHDQKADVSAWKDLFVPRPVLRALSFLGFSAPTPIQALTLAPAIRDKLDILGAAETGSGKTLAFAIPMIHAVLQWQKRNAAPPPSNTKAPPGETRTEAGAETRSPGKAEAESDALPDDTVIESEALPSDIAAEARAKTGGTVSDQALLFGDDDAGEGPSSLIREKPVPKQNENEEENLDKEQTGNLKQELDDKSATCKAYPKRPLLGLVLTPTRELAVQVKQHIDAVARFTGIKTAILVGGMSTQKQQRMLNRRPEIVVATPGRLWELIKEKHYHLRNLRQLRCLVVDEADRMVEKGHFAELSQLLEMLNDSQYNPKRQTLVFSATLTLVHQAPARILHKKHTKKMDKTAKLDLLMQKIGMRGKPKVIDLTRNEATVETLTETKIHCETDEKDFYLYYFLMQYPGRSLVFANSISCIKRLSGLLKVLDIMPLTLHACMHQKQRLRNLEQFARLEDCVLLATDVAARGLDIPKVQHVIHYQVPRTSEIYVHRSGRTARATNEGLSLMLIGPEDVINFKKIYKTLKKDEDIPLFPVQTKYMDVVKERIRLARQIEKSEYRNFQACLHNSWIEQAAAALEIELEEDMYKGGKADQQEERRRQKQMKVLKKELRHLLSQPLFTESQKTKYPTQSGKPPLLVSAPSKSESALSCLSKQKKKKTKKPKEPQPEQPQPSTSAN", "values": [{"measurement": "binding", "value": "binds"}]}]}
